From patent EP2250187B1, “PEPTIDE AND COSMETIC AND/OR PHARMACEUTICAL COMPOSITION CONTAINING THE SAME” (Société d'Extraction des Principes Actifs SA (Vincience), priority 2008, dated 2012)
“Also recorded” adds a separate entry of the source. At least one peptide structure holds a part that was inferred or is arguable (an end, a ring closure or a residue). Residues, ends and D or L forms follow the SMILES beside them.

Tests used:
[1] = test system: collagène de type I; test: Type I collagen expression by immunofluorescence, ex vivo skin culture; type: cell-based, humaine; conditions: ex vivo human skin (dermis), topical 1 % of a 100 ppm stock solution, 48 and 72 h; vs untreated control
[2] = test system: collagène de type I; test: Type I collagen expression by immunofluorescence, in vitro cell culture; type: cell-based; conditions: fibroblastes humains normaux in vitro; peptide at 1 % of a 100 ppm stock solution, 48 h, 2 applications every 24 h; vs untreated control
[3] = test system: kératines; test: Keratin expression by immunofluorescence, ex vivo skin sections; type: cell-based, humaine; conditions: ex vivo human skin, topical 1 % of a 100 ppm stock solution, 48 h; stronger in particular in upper layers of the epidermis
[4] = test system: collagène de type III; test: Type III collagen expression by immunofluorescence, ex vivo skin culture; type: cell-based, humaine; conditions: ex vivo human skin (dermis), topical 1 % of a 100 ppm stock solution, 48 and 72 h; vs untreated control
[5] = test system: intégrine bêta 1; test: Integrin beta 1 expression by immunofluorescence, ex vivo skin culture; type: cell-based, humaine; conditions: ex vivo human skin (epidermis), topical 1 % of a 100 ppm stock solution, 48 and 72 h; vs untreated control
[6] = test system: fibronectine; test: Fibronectin expression by immunofluorescence, in vitro cell culture; type: cell-based; conditions: fibroblastes humains in vitro; peptide at 1 % of a 100 ppm stock solution, 48 h, 2 applications every 24 h; vs untreated control
[7] = test system: collagène de type III; test: Type III collagen expression by immunofluorescence, in vitro cell culture; type: cell-based; conditions: fibroblastes humains normaux in vitro; peptide at 1 % of a 100 ppm stock solution, 48 h, 2 applications every 24 h; vs untreated control
[8] = test system: intégrine bêta 1; test: Integrin beta 1 expression by immunofluorescence, in vitro HaCaT culture; type: cell-based; conditions: kératinocytes humains HaCaT in vitro; peptide at 1 % of a 100 ppm stock solution, 48 h, 2 applications every 24 h; vs untreated control

Structure (SMILES): CC[C@H](C)[C@H](N)C(=O)N[C@@H](CCCNC(=N)N)C(=O)N[C@@H](CC(C)C)C(=O)N[C@@H](CCCNC(=N)N)C(=O)N[C@@H](Cc1ccccc1)C(=O)N[C@@H](CC(C)C)C(=O)N[C@@H](CCCNC(=N)N)C(=O)O [SEQ ID n° 4, Ile-Arg-Leu-Arg-Phe-Leu-Arg] (H-IRLRFLR-OH)
- expression du collagène de type I (immunofluorescence) [1]: fluorescence plus forte; also recorded: stimule fortement
- expression du collagène de type I (immunofluorescence) [2]: fluorescence plus forte; also recorded: stimule fortement

Structure (SMILES): CC[C@H](C)[C@H](N)C(=O)N[C@@H](CCCNC(=N)N)C(=O)N[C@@H](CC(C)C)C(=O)N[C@@H](CCCNC(=N)N)C(=O)N[C@@H](Cc1ccccc1)C(=O)N[C@@H](CC(C)C)C(=O)N[C@@H](CCCNC(=N)N)C(N)=O [SEQ ID n° 5, Ile-Arg-Leu-Arg-Phe-Leu-Arg -NH2] (H-IRLRFLR-NH2)
- expression des kératines (immunofluorescence) [3]: fluorescence plus forte; also recorded: stimule fortement
- expression du collagène de type III (immunofluorescence) [4]: fluorescence plus forte; also recorded: stimule fortement
- expression de l'intégrine bêta 1 (immunofluorescence) [5]: fluorescence plus forte; also recorded: stimule fortement
- expression de la fibronectine (immunofluorescence) [6]: fluorescence plus forte; also recorded: stimule fortement
- expression du collagène de type III (immunofluorescence) [7]: fluorescence plus forte; also recorded: stimule fortement
- expression de l'intégrine bêta 1 (immunofluorescence) [8]: fluorescence plus forte; also recorded: stimule fortement
